PubChem BioAssay AID1259254 – NCATS | 2017

Aim: 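Gene knock-downs that lead to re-replication, shown by excess G2 DNA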 (primary screen)
Cells: human HCT116 colorectal cancer cells
Reagent: single siRNA against human genes
Duration: 3 days
Measured: 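Imaged Hoechst DNA stain sorts each cell into a cycle phase by DNA amount; per plate, G2 fraction set to 0% for non-targeting and 100% for GMNN siRNA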
Scale: G2 robust z-score and G2 cells, % of GMNN control: higher = more G2 cells, more excess DNA replication; raw share of cells in G2: higher = larger share of cells with G2 DNA content
Active means: 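Active siRNAs have a G2 robust z of 5 or more median absolute deviations over the median, which in these data means about 38% or higher of GMNN control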
The whole screen tested about 59,000 reagents; below is a part drawn at random. In the full data, about 1,550 (2.6%) are marked active. 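G2 share is only a proxy for re-replication; each gene was hit by three separate siRNAs, and active genes were retested.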 Raw values vary from plate to plate and are shown uncorrected. The numbers tell different reagents against one gene apart. Not given: the amount of reagent.

gene symbol | siRNA no. | G2 robust z-score | G2 cells, % of GMNN control | raw share of cells in G2 (%) | outcome
MMUT (methylmalonyl-CoA mutase) | 1 | -0.746 | -2.28 | 2.44 | inactive
MMUT (methylmalonyl-CoA mutase) | 2 | 1.38 | 12.6 | 10.5 | inactive
MMUT (methylmalonyl-CoA mutase) | 3 | -0.42 | 0.0117 | 5.36 | inactive
MCM7 (minichromosome maintenance complex component 7) | 1 | -1.13 | -4.95 | 3.45 | inactive
MCM7 (minichromosome maintenance complex component 7) | 2 | -0.854 | -3.04 | 4.27 | inactive
MCM7 (minichromosome maintenance complex component 7) | 3 | 1.54 | 13.8 | 7.74 | inactive
DISC1 (DISC1 scaffold protein) | 1 | 3 | 24.1 | 10.9 | inactive
DISC1 (DISC1 scaffold protein) | 2 | 0.476 | 6.31 | 6.27 | inactive
DISC1 (DISC1 scaffold protein) | 3 | -0.257 | 1.16 | 4.99 | inactive
IPO7 (importin 7) | 1 | 3.46 | 27.3 | 12.7 | inactive
IPO7 (importin 7) | 2 | 0.301 | 5.09 | 8.48 | inactive
IPO7 (importin 7) | 3 | 2.49 | 20.5 | 14.6 | inactive
MRPS18B (mitochondrial ribosomal protein S18B) | 1 | -0.845 | -2.97 | 2.72 | inactive
MRPS18B (mitochondrial ribosomal protein S18B) | 2 | -1.29 | -6.13 | 2.23 | inactive
MRPS18B (mitochondrial ribosomal protein S18B) | 3 | -0.377 | 0.318 | 3.35 | inactive
FAM193A (family with sequence similarity 193 member A) | 1 | -0.256 | 1.17 | 5.65 | inactive
FAM193A (family with sequence similarity 193 member A) | 2 | 1.02 | 10.1 | 7.9 | inactive
FAM193A (family with sequence similarity 193 member A) | 3 | 0.627 | 7.38 | 5.96 | inactive
OR52D1 (olfactory receptor family 52 subfamily D member 1) | 1 | -0.559 | -0.965 | 3.44 | inactive
OR52D1 (olfactory receptor family 52 subfamily D member 1) | 2 | -0.782 | -2.54 | 2.3 | inactive
OR52D1 (olfactory receptor family 52 subfamily D member 1) | 3 | 1.19 | 11.3 | 9.48 | inactive
COG4 (component of oligomeric golgi complex 4) | 1 | 0.463 | 6.23 | 6.25 | inactive
COG4 (component of oligomeric golgi complex 4) | 2 | 1.44 | 13.1 | 8.27 | inactive
COG4 (component of oligomeric golgi complex 4) | 3 | 1.33 | 12.4 | 11.8 | inactive
ATG9B (autophagy related 9B) | 1 | -0.626 | -1.43 | 3.12 | inactive
ATG9B (autophagy related 9B) | 2 | 0.792 | 8.54 | 6.35 | inactive
ATG9B (autophagy related 9B) | 3 | -0.413 | 0.0651 | 3.29 | inactive
DIP2A (DIP2 acetate--CoA ligase A) | 1 | -0.449 | -0.189 | 4.91 | inactive
DIP2A (DIP2 acetate--CoA ligase A) | 2 | -0.255 | 1.17 | 4.62 | inactive
DIP2A (DIP2 acetate--CoA ligase A) | 3 | -0.652 | -1.62 | 2.57 | inactive
EXOSC7 (exosome component 7) | 1 | 0.663 | 7.63 | 9.43 | inactive
EXOSC7 (exosome component 7) | 2 | -1.05 | -4.43 | 2.35 | inactive
EXOSC7 (exosome component 7) | 3 | -0.249 | 1.21 | 4.56 | inactive

Limited to “G2 robust z-score” (8 entries from above):
FAM193A (family with sequence similarity 193 member A) #2: 1.02
FAM193A (family with sequence similarity 193 member A) #3: 0.627
OR52D1 (olfactory receptor family 52 subfamily D member 1) #1: -0.559
OR52D1 (olfactory receptor family 52 subfamily D member 1) #2: -0.782
OR52D1 (olfactory receptor family 52 subfamily D member 1) #3: 1.19
COG4 (component of oligomeric golgi complex 4) #1: 0.463
COG4 (component of oligomeric golgi complex 4) #2: 1.44
COG4 (component of oligomeric golgi complex 4) #3: 1.33

The listing continues.
gene symbol | siRNA no. | G2 robust z-score | G2 cells, % of GMNN control | raw share of cells in G2 (%) | outcome
RDH8 (retinol dehydrogenase 8) | 1 | -0.735 | -2.2 | 2.96 | inactive
RDH8 (retinol dehydrogenase 8) | 2 | 4.05 | 31.5 | 20.2 | inactive
RDH8 (retinol dehydrogenase 8) | 3 | -0.892 | -3.31 | 3.02 | inactive
DRG2 (developmentally regulated GTP binding protein 2) | 1 | 2.35 | 19.5 | 10.8 | inactive
DRG2 (developmentally regulated GTP binding protein 2) | 2 | 1.28 | 12 | 9.36 | inactive
DRG2 (developmentally regulated GTP binding protein 2) | 3 | 4.67 | 35.8 | 17.7 | inactive
PTPN23 (protein tyrosine phosphatase non-receptor type 23) | 1 | -0.653 | -1.63 | 4.27 | inactive
PTPN23 (protein tyrosine phosphatase non-receptor type 23) | 2 | 3.61 | 28.4 | 12.8 | inactive
PTPN23 (protein tyrosine phosphatase non-receptor type 23) | 3 | 0.313 | 5.17 | 5.05 | inactive
IL5RA (interleukin 5 receptor subunit alpha) | 1 | -0.892 | -3.31 | 4.42 | inactive
IL5RA (interleukin 5 receptor subunit alpha) | 2 | -0.344 | 0.55 | 5.24 | inactive
IL5RA (interleukin 5 receptor subunit alpha) | 3 | 1.38 | 12.7 | 8.86 | inactive
ASB10 (ankyrin repeat and SOCS box containing 10) | 1 | 0.27 | 4.86 | 7.1 | inactive
ASB10 (ankyrin repeat and SOCS box containing 10) | 2 | -0.15 | 1.91 | 5.89 | inactive
ASB10 (ankyrin repeat and SOCS box containing 10) | 3 | -0.945 | -3.68 | 2.5 | inactive
LITATS1 | 1 | -0.18 | 1.7 | 4.24 | inactive
LITATS1 | 2 | 2.37 | 19.6 | 11 | inactive
LITATS1 | 3 | -0.514 | -0.65 | 2.64 | inactive
CASP8 (caspase 8) | 1 | 1.53 | 13.8 | 10.4 | inactive
CASP8 (caspase 8) | 2 | 2.52 | 20.7 | 12.2 | inactive
CASP8 (caspase 8) | 3 | -0.594 | -1.21 | 3.46 | inactive
PPFIA2 (PPFI scaffold protein A2) | 1 | 0.0564 | 3.36 | 5.91 | inactive
PPFIA2 (PPFI scaffold protein A2) | 2 | 0.82 | 8.74 | 8.33 | inactive
PPFIA2 (PPFI scaffold protein A2) | 3 | 0.38 | 5.64 | 7.1 | inactive
SKINT1L (Skint1 like (pseudogene)) | 1 | 1.68 | 14.8 | 10.9 | inactive
SKINT1L (Skint1 like (pseudogene)) | 2 | 7.23 | 53.8 | 23.4 | active
SKINT1L (Skint1 like (pseudogene)) | 3 | 0.229 | 4.58 | 5.33 | inactive
EFS (embryonal Fyn-associated substrate) | 1 | 4.43 | 34.1 | 14.9 | inactive
EFS (embryonal Fyn-associated substrate) | 2 | -0.297 | 0.879 | 6.08 | inactive
EFS (embryonal Fyn-associated substrate) | 3 | -1.36 | -6.61 | 3.87 | inactive
UVSSA (UV stimulated scaffold protein A) | 1 | 3.3 | 26.2 | 11.3 | inactive
UVSSA (UV stimulated scaffold protein A) | 2 | 0.618 | 7.31 | 7.23 | inactive
UVSSA (UV stimulated scaffold protein A) | 3 | -0.704 | -1.98 | 3.51 | inactive
ARRDC1-AS1 (ARRDC1 antisense RNA 1) | 1 | 0.612 | 7.27 | 5.28 | inactive
ARRDC1-AS1 (ARRDC1 antisense RNA 1) | 2 | 0.492 | 6.43 | 4.96 | inactive
ARRDC1-AS1 (ARRDC1 antisense RNA 1) | 3 | -0.407 | 0.102 | 4.13 | inactive
